Laboratory results taken from article PMC10879184.
Results are given in words; binding and its absence hold for the method and conditions named. Binding seen in cells or lysates may run through a third protein. These calls come from enrichment with a bait or labelling near it, and not all partners need be listed.

By UniProt entry, the sequences of proteins in these tests, tags left out.
UniProt Q61602: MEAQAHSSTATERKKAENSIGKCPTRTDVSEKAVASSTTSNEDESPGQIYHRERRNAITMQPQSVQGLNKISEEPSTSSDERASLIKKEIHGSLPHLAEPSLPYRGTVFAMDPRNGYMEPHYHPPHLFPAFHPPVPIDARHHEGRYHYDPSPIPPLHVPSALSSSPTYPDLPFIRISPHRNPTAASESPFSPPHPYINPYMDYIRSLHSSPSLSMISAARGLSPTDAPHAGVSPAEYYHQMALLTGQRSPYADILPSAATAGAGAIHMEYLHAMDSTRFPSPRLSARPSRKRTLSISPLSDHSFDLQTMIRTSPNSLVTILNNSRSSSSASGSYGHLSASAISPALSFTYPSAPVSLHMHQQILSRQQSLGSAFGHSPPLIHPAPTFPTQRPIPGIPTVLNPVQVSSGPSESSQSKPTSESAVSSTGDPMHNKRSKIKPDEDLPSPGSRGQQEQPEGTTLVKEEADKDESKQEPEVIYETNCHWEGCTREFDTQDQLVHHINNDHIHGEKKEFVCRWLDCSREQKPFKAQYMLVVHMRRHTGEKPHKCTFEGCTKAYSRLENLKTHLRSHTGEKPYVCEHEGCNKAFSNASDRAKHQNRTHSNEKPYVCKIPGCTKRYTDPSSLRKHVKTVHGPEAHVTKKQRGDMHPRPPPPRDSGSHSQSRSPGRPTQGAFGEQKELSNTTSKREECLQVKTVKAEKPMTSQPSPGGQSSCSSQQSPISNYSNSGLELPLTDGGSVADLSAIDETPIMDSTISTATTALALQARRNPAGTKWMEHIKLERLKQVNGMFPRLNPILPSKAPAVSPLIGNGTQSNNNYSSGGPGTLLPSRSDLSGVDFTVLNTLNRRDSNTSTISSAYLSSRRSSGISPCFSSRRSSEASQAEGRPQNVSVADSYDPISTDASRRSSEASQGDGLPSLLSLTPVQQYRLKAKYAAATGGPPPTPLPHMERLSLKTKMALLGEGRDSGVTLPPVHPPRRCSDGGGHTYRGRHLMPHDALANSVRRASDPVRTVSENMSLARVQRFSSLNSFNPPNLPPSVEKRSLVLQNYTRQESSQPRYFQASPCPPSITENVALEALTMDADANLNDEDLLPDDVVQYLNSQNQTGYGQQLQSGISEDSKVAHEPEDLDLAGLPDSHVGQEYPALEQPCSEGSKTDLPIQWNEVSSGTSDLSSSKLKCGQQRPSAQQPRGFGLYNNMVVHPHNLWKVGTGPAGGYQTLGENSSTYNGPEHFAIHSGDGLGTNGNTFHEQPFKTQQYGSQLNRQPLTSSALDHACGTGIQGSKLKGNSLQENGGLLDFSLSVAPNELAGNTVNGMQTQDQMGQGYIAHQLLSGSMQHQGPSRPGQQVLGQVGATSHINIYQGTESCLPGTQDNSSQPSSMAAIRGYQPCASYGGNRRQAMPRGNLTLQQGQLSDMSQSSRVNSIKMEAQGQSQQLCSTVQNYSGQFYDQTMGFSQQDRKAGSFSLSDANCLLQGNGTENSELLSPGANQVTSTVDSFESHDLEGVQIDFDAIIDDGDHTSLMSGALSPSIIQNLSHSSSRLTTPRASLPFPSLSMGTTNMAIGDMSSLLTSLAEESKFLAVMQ

Each binder was assayed against Gli3 (endogenous) (mouse (endogenous in NIH/3T3)) (UniProt Q61602) (assay: affinity purification with mass spectrometry; NIH/3T3 cells treated with 100 nM SAG for 4 h, 'nuclear' and 'cytoplasmic' fractions; goat anti-Gli3 (AF3690) cross-linked to Dynabeads-Protein G, overnight; washes with harsh RIPA (500 mM LiCl), RIPA with 0.8 M urea, mild 0.1% NP-40 buffer; prominent gel bands identified by LC/MS/MS; CRAPome filter (FDR < 10%)).

binding	Binder
binds	Xpo7 (endogenous) (protein, UniProt Q9EPK7 1-1087) MADHVQSLAQLENLCKQLYETTDTTTRLQAEKALVEFTNSPDCLSKCQLLLERGSSSYSQLLAATCLTKLVSRTNNPLPLEQRIDIRNYVLNYLATRPKLATFVTQALIQLYARITKLGWFDCQKDDYVFRNAITDVTRFLQDSVEYCIIGVTILSQLTNEINQADTTHPLTKHRKIASSFRDSSLFDIFTLSCNLLKQASGKNLNLNDESQHGLLMQLLKLTHNCLNFDFIGTSTDESSDDLCTVQIPTSWRSAFLDSSTLQLFFDLYHSIPPSFSPLVLSCLVQIASVRRSLFNNAERAKFLSHLVDGVKRILENPQSLSDPNNYHEFCRLLARLKSNYQLGELVKVENYPDVIRLIANFTVTSLQHWEFAPNSVHYLLSLWQRLAASVPYVKATEPHMLETYTPEVTKAYITSRLESVHIILRDGLEDPLEDTGLVQQQLDQLSTIGRCEYEKTCALLVQLFDQSAQSYQELLQSASASPMDIAVQEGRLTWLVYIIGAVIGGRVSFASTDEQDAMDGELVCRVLQLMNLTDSRLAQAGNEKLELAMLSFFEQFRKIYIGDQVQKSSKLYRRLSEVLGLNDETMVLSVFIGKVITNLKYWGRCEPITSKTLQLLNDLSIGYSSVRKLVKLSAVQFMLNNHTSEHFSFLGINNQSNLTDMRCRTTFYTALGRLLMVDLGEDEDQYEQFMLPLTAAFEAVAQMFSTNSFNEQEAKRTLVGLVRDLRGIAFAFNAKTSFMMLFEWIYPSYMPILQRAIELWYHDPACTTPVLKLMAELVHNRSQRLQFDVSSPNGILLFRETSKMITMYGNRILTLGEVPKDQVYALKLKGISICFSMLKAALSGSYVNFGVFRLYGDDALENALQTFIKLLLSIPHSDLLDYPKLSQSYYSLLEVLTQDHMNFIASLEPHVIMYILSSISEGLTALDTMVCTGCCSCLDHIVTYLFKQLSRSTKKRTTPLNRESDCFLHIMQQHPAMIQQMLSTVLNIIIFEDCRNQWSMSRPLLGLILLNEKYFSDLRNSIVNSQPPEKQQAMHLCFENLMEGIERNLLTKNRDRFTQNLSAFRREVNDSMKNSTYGVNSNDMMS
binds	SuFu (endogenous) (protein, UniProt Q9Z0P7 1-484) MAELRPSVAPGPAAPPASGPSAPPAFASLFPPGLHAIYGECRRLYPDQPNPLQVTAIVKYWLGGPDPLDYVSMYRNMGSPSANIPEHWHYISFGLSDLYGDNRVHEFTGTDGPSGFGFELTFRLKRETGESAPPTWPAELMQGLARYVFQSENTFCSGDHVSWHSPLDNSESRIQHMLLTEDPQMQPVRTPFGVVTFLQIVGVCTEELHSAQQWNGQGILELLRTVPIAGGPWLITDMRRGETIFEIDPHLQERVDKGIETDGSNLSGVSAKCAWDDLSRPPEDEEDSRSICLGTQPRRLSGKDTEQIRETLRRGLEINSKPVLPPINSQRQNGLTHDRAPSRKDSLGSDSSTAIIPHELIRTRQLESVHLKFNQESGALIPLCLRGRLLHGRHFTYKSITGDMAITFVSTGVEGAFATEEHPYAAHGPWLQILLTEEFVEKMLEDLEDLTSPEEFKLPKEYSWPEKKLKVSILPDVVFDSPLH
binds	Kif7 (endogenous) (protein, UniProt B7ZNG0 1-1348) MGLEAQRLPGAEEAPVRVALRVRPLLPKELLHGHQSCLRVEPERGRITLGRDRHFGFHVVLGEDTGQEAVYQACVQPLLEAFFEGFNATVFAYGQTGSGKTYTMGEASVASLHEDEQGIIPRAMAEAFKLIDENDLLDCLVHVSYLELYKEEFRDLLEVGTASRDIQLREDDRGNVVLCGVKEVDVEGLDEVLSLLEMGNAARHTGATHFNRLSSRSHTVFTVTLEQRGRTPSRLPRPAAGHLLVSKFHFVDLAGSERVLKTGSTGERLKESIQINSTLLALGNVISALGDPQRRGSHIPYRDSKITRILKDSLGGNAKTVMIACVSPSSSDFDETLNTLNYASRAQNIRNRATVNWHPEAERVPEEQAAGARGPPRHRSETRIIHRGRRVPCPAVGSAAVAAGLGAECARCRARTSAAYSLLRELQAEPGLPGAAARKVRDWLCAVEGERSTLSSASGPDSGIESAPAEDQAAQGTSGRKGDEGTQQLLTLQSQVARLEEENRDFLAALEDAMEQYKLQSDRLREQQEEMVELRLRLELAQPGWGAPGLLQGLPPGSFVPRPHTAPLGGAHTHMLGMMPSTCLPGEEVSSEQQVVSGKEVKAEVLAQADKLRSASSTTSEEEGEEEEEEEEEEEEPPRRTLYLRRNGISNWSQRAGLSPGSPPDRKGPEVCPEEPAAAIPAPQAVGSGKVPVQTRQAPAAMASEWRLAQAQQKIRELAINIRMKEELIGELVRTGKAAQALNRQHSQRIRELEQEAERVRAELCEGQRQLRELEGREPQDASERSRLQEFRKRVAAAQSQVQVLKEKKQATERLVSLSAQSETRLQELERNVQLMRRQQGQLQRRLREETEQKRRLETEMNKRQHRVKELELKHEQQQKILKIKTEEIAAFQRKRRSGSNGSVVSLEQQQKIEEQKKWLDQEMEKVLQQRRALEELGEELRKREVILAKKEALMQEKTGLESKRLRSSQALNEDIVRVSSRLEHLEKELSEKSGQLRQGSAQNQQQIRGEIDTLRQEKDSLLKQRLEIDSKLRQGSLLSPEEERTLFQLDEAIEALDAAIEYKNEAITCRQRVLRASASLLSQCEMNLMAKLSYLSSSETRALLCKYFDKVVTLREEQHQQQIAFSELEMQLEEQQRLVYWLEVALERQRLEMDRQLTLQQKEHEQNVQLLLQQGRDHLGEGLADSKRQYEARIHALEKELGRHMWINQELKQKLSAGSTAGQSQGCERRSLCLENRQCLGNEDGLHPAAPEPLWQSSLLEGVSRVWDESRDLVHAPLPLTWKRSSLCSEQGSSEESRVRETTEPPVGRVLPMGEVGLSWNFGPLPKPRWEPRRTSPGMIDVRKNPL
